# This is one part of the list.
# B1: Drgal1 (Danio rerio) (protein)
# chain: MAGVLIQNMSFKVGQTLTITGVPKPDSTNFAINIGHSPEDIALHMNPRFDAHGDQCTIVCNSFQSGSWCEEHRDDNFPFIQDKEFQIKITFTNEEFLVTLPDGSEIHFPNRQGSEKYKYMYFEGEVRIQGVEIK
# Key:
# Assay in all cases: glycan array binding signal (z-score within array); higher = stronger binding
# Details in all cases: glycan notation: IUPAC condensed, linker removed
# [1] = target: Gal(b1-4)GlcNAc(b1-2)Man(a1-6)[GlcNAc(b1-2)Man(a1-3)]Man(b1-4)GlcNAc(b1-4)GlcNAc
# Summary of the method: (§1)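 Glycan array data were curated from 3228 arrays in the Consortium for Functional Glycomics database and kept only where the protein sequence was available. Glycan names were converted to IUPAC-condensed notation, and columns mapping to the same glycan were averaged. The binding signal is a within-array Z-score, averaged across arrays of the same protein sequence at different concentrations or buffers and across linkers. Negative Z-scores can be read as non-binding.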
# [2] = target: Gal(b1-4)GlcNAc(b1-2)Man(a1-6)[Man(a1-3)]Man(b1-4)GlcNAc(b1-4)GlcNAc
# Summary of the method: as §1
# [3] = target: Gal(b1-4)GlcNAc(b1-2)[Gal(b1-4)GlcNAc(b1-4)]Man(a1-3)[Gal(b1-4)GlcNAc(b1-2)Man(a1-6)]Man(b1-4)GlcNAc(b1-4)GlcNAc
# Summary of the method: as §1
# [4] = target: Gal(b1-4)GlcNAc(b1-2)[Gal(b1-4)GlcNAc(b1-4)]Man(a1-3)[Gal(b1-4)GlcNAc(b1-2)[Gal(b1-4)GlcNAc(b1-6)]Man(a1-6)]Man(b1-4)GlcNAc(b1-4)GlcNAc
# Summary of the method: as §1
# [5] = target: Gal(b1-4)GlcNAc(b1-2)[Gal(b1-4)GlcNAc(b1-4)]Man(a1-3)[GlcNAc(b1-4)][Gal(b1-4)GlcNAc(b1-2)Man(a1-6)]Man(b1-4)GlcNAc(b1-4)GlcNAc
# Summary of the method: as §1
# [6] = target: Gal(b1-4)GlcNAc(b1-2)[Gal(b1-4)GlcNAc(b1-4)]Man(a1-3)[GlcNAc(b1-4)][Gal(b1-4)GlcNAc(b1-2)[Gal(b1-4)GlcNAc(b1-6)]Man(a1-6)]Man(b1-4)GlcNAc(b1-4)GlcNAc
# Summary of the method: as §1
# [7] = target: Gal(b1-4)GlcNAc(b1-2)[Gal(b1-4)GlcNAc(b1-6)]Man(a1-6)[Gal(b1-4)GlcNAc(b1-2)Man(a1-3)]Man(b1-4)GlcNAc(b1-4)GlcNAc
# Summary of the method: as §1
# [8] = target: Gal(b1-4)GlcNAc(b1-2)[Gal(b1-4)GlcNAc(b1-6)]Man(a1-6)[Gal(b1-4)GlcNAc(b1-2)Man(a1-3)]Man(b1-4)GlcNAc(b1-4)[Fuc(a1-6)]GlcNAc
# Summary of the method: as §1
# [9] = target: Gal(b1-4)GlcNAc(b1-2)[Gal(b1-4)GlcNAc(b1-6)]Man(a1-6)[GlcNAc(b1-4)][Gal(b1-4)GlcNAc(b1-2)Man(a1-3)]Man(b1-4)GlcNAc(b1-4)GlcNAc
# Summary of the method: as §1
# [10] = target: Gal(b1-4)GlcNAc(b1-2)[Gal(b1-4)GlcNAc(b1-6)]Man(a1-6)[GlcNAc(b1-4)][Gal(b1-4)GlcNAc(b1-2)[Gal(b1-4)GlcNAc(b1-4)]Man(a1-3)]Man(b1-4)GlcNAc(b1-4)[Fuc(a1-6)]GlcNAc
# Summary of the method: as §1
# [11] = target: Gal(b1-4)GlcNAc(b1-3)Gal(b1-3)GalNAc
# Summary of the method: as §1
# [12] = target: Gal(b1-4)GlcNAc(b1-3)Gal(b1-3)GlcNAc
# Summary of the method: as §1
# [13] = target: Gal(b1-4)GlcNAc(b1-3)Gal(b1-4)Glc
# Summary of the method: as §1
# [14] = target: Gal(b1-4)GlcNAc(b1-3)Gal(b1-4)GlcNAc
# Summary of the method: as §1
# [15] = target: Gal(b1-4)GlcNAc(b1-3)Gal(b1-4)GlcNAc(b1-2)Man(a1-3)[Gal(b1-4)GlcNAc(b1-3)Gal(b1-4)GlcNAc(b1-2)Man(a1-6)]Man(b1-4)GlcNAc(b1-4)GlcNAc
# Summary of the method: as §1
# [16] = target: Gal(b1-4)GlcNAc(b1-3)Gal(b1-4)GlcNAc(b1-2)Man(a1-3)[Gal(b1-4)GlcNAc(b1-3)Gal(b1-4)GlcNAc(b1-2)Man(a1-6)]Man(b1-4)GlcNAc(b1-4)[Fuc(a1-6)]GlcNAc
# Summary of the method: as §1
# [17] = target: Gal(b1-4)GlcNAc(b1-3)Gal(b1-4)GlcNAc(b1-2)[Gal(b1-4)GlcNAc(b1-3)Gal(b1-4)GlcNAc(b1-6)]Man(a1-6)[Gal(b1-4)GlcNAc(b1-3)Gal(b1-4)GlcNAc(b1-2)Man(a1-3)]Man(b1-4)GlcNAc(b1-4)GlcNAc
# Summary of the method: as §1
# [18] = target: Gal(b1-4)GlcNAc(b1-3)Gal(b1-4)GlcNAc(b1-2)[Gal(b1-4)GlcNAc(b1-3)Gal(b1-4)GlcNAc(b1-6)]Man(a1-6)[Gal(b1-4)GlcNAc(b1-3)Gal(b1-4)GlcNAc(b1-2)Man(a1-3)]Man(b1-4)GlcNAc(b1-4)[Fuc(a1-6)]GlcNAc
# Summary of the method: as §1
# [19] = target: Gal(b1-4)GlcNAc(b1-3)Gal(b1-4)GlcNAc(b1-3)Gal(b1-4)GlcNAc
# Summary of the method: as §1
# [20] = target: Gal(b1-4)GlcNAc(b1-3)Gal(b1-4)GlcNAc(b1-3)Gal(b1-4)GlcNAc(b1-2)Man(a1-3)[Gal(b1-4)GlcNAc(b1-3)Gal(b1-4)GlcNAc(b1-3)Gal(b1-4)GlcNAc(b1-2)Man(a1-6)]Man(b1-4)GlcNAc(b1-4)GlcNAc
# Summary of the method: as §1
# [21] = target: Gal(b1-4)GlcNAc(b1-3)Gal(b1-4)GlcNAc(b1-3)Gal(b1-4)GlcNAc(b1-2)Man(a1-3)[Gal(b1-4)GlcNAc(b1-3)Gal(b1-4)GlcNAc(b1-3)Gal(b1-4)GlcNAc(b1-2)Man(a1-6)]Man(b1-4)GlcNAc(b1-4)[Fuc(a1-6)]GlcNAc
# Summary of the method: as §1
# [22] = target: Gal(b1-4)GlcNAc(b1-3)Gal(b1-4)GlcNAc(b1-3)Gal(b1-4)GlcNAc(b1-2)[Gal(b1-4)GlcNAc(b1-3)Gal(b1-4)GlcNAc(b1-3)Gal(b1-4)GlcNAc(b1-6)]Man(a1-6)[Gal(b1-4)GlcNAc(b1-3)Gal(b1-4)GlcNAc(b1-3)Gal(b1-4)GlcNAc(b1-2)Man(a1-3)]Man(b1-4)GlcNAc(b1-4)[Fuc(a1-6)]GlcNAc
# Summary of the method: as §1
binder,measurement,setting,value
B1,glycan array binding signal (z-score),[1],0.241
same,glycan array binding signal (z-score),[2],0.259
same,glycan array binding signal (z-score),[3],0.1
same,glycan array binding signal (z-score),[4],0.427
same,glycan array binding signal (z-score),[5],-0.015
same,glycan array binding signal (z-score),[6],0.784
same,glycan array binding signal (z-score),[7],-0.131
same,glycan array binding signal (z-score),[8],0.501
same,glycan array binding signal (z-score),[9],0.922
same,glycan array binding signal (z-score),[10],0.026
same,glycan array binding signal (z-score),[11],-0.119
same,glycan array binding signal (z-score),[12],-0.67
same,glycan array binding signal (z-score),[13],0.641
same,glycan array binding signal (z-score),[14],-0.154
same,glycan array binding signal (z-score),[15],0.292
same,glycan array binding signal (z-score),[16],0.997
same,glycan array binding signal (z-score),[17],0.864
same,glycan array binding signal (z-score),[18],1.92
same,glycan array binding signal (z-score),[19],0.325
same,glycan array binding signal (z-score),[20],1.03
same,glycan array binding signal (z-score),[21],1.4
same,glycan array binding signal (z-score),[22],1.34

# For reference, some entries already given.
binder,measurement,setting,value
B1,glycan array binding signal (z-score),[5],-0.015
same,glycan array binding signal (z-score),[6],0.784
